Data taken from article PMC12366525, “Characterization of allosteric modulators that disrupt androgen receptor co-activator protein-protein interactions to alter transactivation–Drug leads for metastatic castration resistant prostate cancer” (SLAS discovery : advancing life sciences R & D, 2023).
No constants are given. Whether binding was seen depends on the method and setting. Binding can be weak; no strength is given.

Target: His6-AR-LBD (pET28a-AR-LBD (622–919))
Experiment: AlphaScreen or HTRF; 150 nM biotinylated TIF2-box III peptide on streptavidin donor beads; His6-AR-LBD (400 ng/well) with 10 uM DHT on nickel chelate acceptor beads; 1 h at room temperature in the dark; 500-fold excess of unlabeled peptide (75 uM) as minimum control; both purified

B1: Biotinylated TIF2-box-III (738–756) peptide (peptide)
peptide: CKKKENALLRYLLDKDDTKD
modifications: biotin on the N-terminus (Biotin-HN-); C-terminal amide (-CONH2)
With B1 the binding was “binds”.
